Source: paper PMC7862700
The list shows a part of the results, in another mix than the full data. For some assays here: At the low end of the ranking, values are background and their order means little. This is one part of the list. For some assays here: The source does not settle which construct or isoform was used.

The chains behind the UniProt entries cited, without tags or fusion partners. Where a name states a change or a piece, a line headed by the entry shows the natural chain unless it says otherwise.
UniProt Q00613: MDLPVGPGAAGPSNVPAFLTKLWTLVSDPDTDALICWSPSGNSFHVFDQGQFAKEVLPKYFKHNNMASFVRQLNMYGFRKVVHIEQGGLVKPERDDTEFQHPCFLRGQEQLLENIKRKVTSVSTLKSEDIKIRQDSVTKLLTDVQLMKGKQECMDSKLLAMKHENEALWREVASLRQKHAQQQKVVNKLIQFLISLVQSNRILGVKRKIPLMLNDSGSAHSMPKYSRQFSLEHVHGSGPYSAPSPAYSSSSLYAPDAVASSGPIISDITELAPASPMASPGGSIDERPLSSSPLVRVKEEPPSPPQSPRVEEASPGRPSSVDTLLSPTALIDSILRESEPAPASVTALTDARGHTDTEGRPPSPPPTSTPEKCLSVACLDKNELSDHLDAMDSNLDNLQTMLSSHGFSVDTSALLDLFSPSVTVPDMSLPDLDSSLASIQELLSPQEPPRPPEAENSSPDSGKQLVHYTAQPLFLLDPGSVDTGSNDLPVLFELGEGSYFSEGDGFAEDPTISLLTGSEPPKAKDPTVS

Tests used:
HSF1 = HSF1 (UniProt Q00613); assay: DAPPL (digital affinity profiling via proximity ligation, sequencing); details: 10 mM Tris-HCl pH 7.5, 50 mM NaCl, 1 mM DTT, 4% glycerol, room temperature, 30 min; GST-TFs on glutathione beads, 16-mer random dsDNA library, 0.1% …; high values mean tight binding; double strand, one strand shown; scale: fold enrichment (6-mer frequency, TF over GST control)
ELF2 = target: T1, ELF2 (UniProt Q15723); assay: as above; details: 10 mM Tris-HCl pH 7.5, 50 mM NaCl, 1 mM DTT, 4% glycerol, room temperature, 30 min; GST-TFs on glutathione beads, 16-mer random dsDNA library, 0.1% …; high values mean tight binding; double strand, one strand shown; scale: fold enrichment (6-mer frequency, TF over GST control)
T1 sequence: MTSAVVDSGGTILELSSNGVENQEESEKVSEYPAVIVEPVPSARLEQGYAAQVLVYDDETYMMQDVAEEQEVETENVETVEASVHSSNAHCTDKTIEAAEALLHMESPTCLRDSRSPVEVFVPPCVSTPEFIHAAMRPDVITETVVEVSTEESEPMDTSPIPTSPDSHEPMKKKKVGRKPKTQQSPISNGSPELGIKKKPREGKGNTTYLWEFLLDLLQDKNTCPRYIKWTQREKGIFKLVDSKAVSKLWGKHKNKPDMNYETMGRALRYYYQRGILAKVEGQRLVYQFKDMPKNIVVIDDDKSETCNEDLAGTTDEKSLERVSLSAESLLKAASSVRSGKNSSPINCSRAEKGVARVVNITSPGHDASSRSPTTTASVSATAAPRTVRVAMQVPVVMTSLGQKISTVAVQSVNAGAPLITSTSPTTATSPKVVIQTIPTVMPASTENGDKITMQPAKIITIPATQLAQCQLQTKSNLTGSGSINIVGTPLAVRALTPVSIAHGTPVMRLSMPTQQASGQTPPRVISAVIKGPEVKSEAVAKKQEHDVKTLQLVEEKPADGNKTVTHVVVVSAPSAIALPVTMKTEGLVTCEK

Row | Sequence | binding signal (HSF1) | binding signal (ELF2)
1 | CTGGTG | 0.859 | 0.94
2 | TGGAAG | 1.56 | 0.968
3 | GGTCTA | 0.953 | 1.03
4 | CGAATG | 1.5 | 0.99
5 | CCTCGG | 0.992 | 1.11
6 | TACGGA | 0.951 | 1.82
7 | TATGAG | 0.923 | 0.951
8 | ATCCTA | 1.61 | 1.37
9 | ACGCCT | 1.15 | 1.13
10 | AAAGTA | 1.29 | 1.13
11 | AAAGCA | 1.04 | 1.06
12 | TCTCTC | 1.59 | 1.21
13 | GGCTAC | 0.873 | 1.13
14 | TCCTTA | 1.54 | 1.7
15 | TGCTAG | 1.94 | 1.01
16 | GCCCTC | 0.987 | 1.07
17 | CCAACC | 0.791 | 1.05
18 | TTTCAT | 1.13 | 1.13
19 | ATCCTC | 1.67 | 1.5
20 | CCGGTC | 0.552 | 1.19
21 | CCCCTT | 1.37 | 1.54
22 | GTACAG | 0.776 | 0.957
23 | AAAGGC | 0.918 | 0.94
24 | ATATCT | 1.26 | 1.2
25 | GCGTTA | 0.934 | 0.923
26 | ATCCTT | 1.98 | 1.65
27 | ACTCTG | 1.12 | 1.21

Row | Sequence | binding signal (HSF1) | binding signal (ELF2)
28 | GTAAAT | 1.22 | 1.12
29 | TGCGAA | 1.21 | 1.14
30 | GCGCCC | 0.867 | 1.08
31 | CCCGGC | 0.918 | 1.12
32 | ACTTCG | 1.65 | 1.33
33 | ACCCAA | 0.898 | 1.06
34 | GAAGCC | 0.872 | 1.16
35 | ACCCGT | 0.741 | 0.819
36 | GACATG | 0.722 | 0.941
37 | AGCAAT | 1.1 | 1.11
38 | AAGGGA | 0.899 | 0.9
39 | TGTCTA | 1.15 | 1.11
40 | TCCTGA | 1.57 | 1.66
41 | ATTCTT | 1.99 | 1.45
42 | AAAGCC | 1.14 | 1
43 | ACAGCC | 0.841 | 0.996
44 | AAGGCC | 0.83 | 0.863
45 | GTAACC | 0.785 | 1.09
46 | CGACAG | 0.91 | 0.879
47 | CTCTAT | 1.11 | 1.13
48 | CGGTTC | 0.882 | 1.51
49 | GAAACG | 0.949 | 1.31
50 | GGATGC | 0.772 | 1.19
51 | CATCGC | 0.988 | 1.03
52 | GCTGCG | 0.978 | 1.09
53 | CCCTGA | 0.951 | 0.993
54 | CGTTGT | 0.763 | 0.937

Numbers 48 through 52, quoted:
Row | Sequence | binding signal (HSF1) | binding signal (ELF2)
48 | CGGTTC | 0.882 | 1.51
49 | GAAACG | 0.949 | 1.31
50 | GGATGC | 0.772 | 1.19
51 | CATCGC | 0.988 | 1.03
52 | GCTGCG | 0.978 | 1.09

(cont.)

Row | Sequence | binding signal (HSF1) | binding signal (ELF2)
55 | AGGTCC | 0.762 | 0.917
56 | GAAGTG | 0.692 | 2.08
57 | TCCGAA | 1.48 | 1.27
58 | ACATAG | 0.951 | 0.975
59 | ACAAAT | 1.17 | 1.17
60 | ATTGCA | 1.06 | 1.11
61 | CCTTTA | 1.31 | 1.32
62 | TTCGGT | 1.22 | 1.08
63 | TGGATC | 1.16 | 0.925
64 | GGTTAT | 0.927 | 1.06
65 | TAATCC | 4.27 | 1.18
66 | TTAGCA | 1.7 | 1.16
67 | AATTTC | 1.89 | 2.01
68 | TGTAGA | 1.12 | 0.873
69 | ACTCAC | 1.07 | 1.21
70 | ACGCGC | 0.944 | 0.987
71 | TAACCA | 1.16 | 1.09
72 | CGCCGC | 0.888 | 1.14
73 | GACTAT | 0.958 | 0.916
74 | ACTGCA | 0.874 | 1.1
75 | GCCCGG | 0.678 | 1.07
76 | TGGTCC | 0.933 | 1.15
77 | AGTAGC | 0.84 | 1.08
78 | AGGCTT | 1.24 | 0.99
79 | TTACCA | 1.47 | 1.02
